Structures can show the parent of a compound that is named as a salt. This is one part of the list. Hit calls seldom repeat between salt and free forms of one compound.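 Kinases, fused to nanoluciferase, were expressed in K562 cells; luminescence was measured every 4 h from 2 to 18 h as percent of control (DMSO = 100%, positive control = 0%). A time point is decreased if signal falls significantly (2 sigma). Hits were called by the authors by a rule that is not shown; the count of time points alone does not decide it.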
Experiments:
Test in all cases: number of time points (of 5) at which kinase-Nluc abundance scored as decreased, DMSO-normalised (count); higher = more persistent destabilization
Conditions in all cases: K562; 2-18 h
PRKCA = PRKCA (UniProt P17252)
PTK2 = PTK2 (UniProt Q05397)
PTK2B = PTK2B (UniProt Q14289)
RAF1 = RAF1 (UniProt P04049)
[1] = molecular target: RAF1_S257L (clone: RAF1_mut) (UniProt P04049)
RET = RET (UniProt P07949)
[2] = molecular target: RET_M918T (clone: RET_mut) (UniProt P07949)
RIOK1 = RIOK1 (UniProt Q9BRS2)
RIPK1 = RIPK1 (UniProt Q13546)
RIPK2 = RIPK2 (UniProt O43353)
ROR2 = ROR2 (UniProt Q01974)
RPS6KA1 = RPS6KA1 (UniProt Q15418)
SPHK1 = SPHK1 (UniProt Q9NYA1)
SRC = SRC (UniProt P12931)
STK24 = STK24 (UniProt Q9Y6E0)
STK38 = STK38 (UniProt Q15208)
SYK = SYK (UniProt P43405)
TEC = TEC (UniProt P42680)
TYK2 = TYK2 (UniProt P29597)
ULK3 = ULK3 (UniProt Q6PHR2)

Chains of the proteins cited; added tags and fusions are not shown. Lines headed by an entry give the natural chain unless they say otherwise; changes in a name come on top.
UniProt Q05397, whole entry, looked up: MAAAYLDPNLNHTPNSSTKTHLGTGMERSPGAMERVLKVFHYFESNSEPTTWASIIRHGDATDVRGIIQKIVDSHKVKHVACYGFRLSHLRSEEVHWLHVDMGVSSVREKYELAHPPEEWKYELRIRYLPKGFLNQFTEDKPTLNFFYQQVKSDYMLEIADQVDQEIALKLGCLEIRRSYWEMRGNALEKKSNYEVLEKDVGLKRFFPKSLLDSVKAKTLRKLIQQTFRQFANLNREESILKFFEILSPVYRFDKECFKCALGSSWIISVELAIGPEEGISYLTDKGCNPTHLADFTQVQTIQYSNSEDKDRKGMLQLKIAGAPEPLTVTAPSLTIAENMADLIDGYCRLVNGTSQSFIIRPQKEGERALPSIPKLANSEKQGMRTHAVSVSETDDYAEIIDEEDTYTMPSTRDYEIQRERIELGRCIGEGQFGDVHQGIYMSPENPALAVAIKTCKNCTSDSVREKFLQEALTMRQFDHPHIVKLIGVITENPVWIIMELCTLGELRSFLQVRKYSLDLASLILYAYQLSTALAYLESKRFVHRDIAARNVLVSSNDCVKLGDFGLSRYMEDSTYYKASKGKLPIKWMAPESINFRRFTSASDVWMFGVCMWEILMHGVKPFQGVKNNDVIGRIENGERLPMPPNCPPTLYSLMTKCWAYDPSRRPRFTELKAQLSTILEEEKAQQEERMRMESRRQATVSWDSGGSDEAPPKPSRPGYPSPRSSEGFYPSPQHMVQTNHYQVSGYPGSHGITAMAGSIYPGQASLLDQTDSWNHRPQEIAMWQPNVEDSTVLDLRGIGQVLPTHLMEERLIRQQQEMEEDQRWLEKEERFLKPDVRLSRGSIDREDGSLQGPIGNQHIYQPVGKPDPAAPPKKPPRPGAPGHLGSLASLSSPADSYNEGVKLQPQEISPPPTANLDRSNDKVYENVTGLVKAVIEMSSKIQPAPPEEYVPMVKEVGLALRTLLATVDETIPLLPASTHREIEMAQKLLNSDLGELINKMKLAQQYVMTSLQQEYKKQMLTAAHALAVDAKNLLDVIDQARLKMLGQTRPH
UniProt P07949, whole entry, looked up: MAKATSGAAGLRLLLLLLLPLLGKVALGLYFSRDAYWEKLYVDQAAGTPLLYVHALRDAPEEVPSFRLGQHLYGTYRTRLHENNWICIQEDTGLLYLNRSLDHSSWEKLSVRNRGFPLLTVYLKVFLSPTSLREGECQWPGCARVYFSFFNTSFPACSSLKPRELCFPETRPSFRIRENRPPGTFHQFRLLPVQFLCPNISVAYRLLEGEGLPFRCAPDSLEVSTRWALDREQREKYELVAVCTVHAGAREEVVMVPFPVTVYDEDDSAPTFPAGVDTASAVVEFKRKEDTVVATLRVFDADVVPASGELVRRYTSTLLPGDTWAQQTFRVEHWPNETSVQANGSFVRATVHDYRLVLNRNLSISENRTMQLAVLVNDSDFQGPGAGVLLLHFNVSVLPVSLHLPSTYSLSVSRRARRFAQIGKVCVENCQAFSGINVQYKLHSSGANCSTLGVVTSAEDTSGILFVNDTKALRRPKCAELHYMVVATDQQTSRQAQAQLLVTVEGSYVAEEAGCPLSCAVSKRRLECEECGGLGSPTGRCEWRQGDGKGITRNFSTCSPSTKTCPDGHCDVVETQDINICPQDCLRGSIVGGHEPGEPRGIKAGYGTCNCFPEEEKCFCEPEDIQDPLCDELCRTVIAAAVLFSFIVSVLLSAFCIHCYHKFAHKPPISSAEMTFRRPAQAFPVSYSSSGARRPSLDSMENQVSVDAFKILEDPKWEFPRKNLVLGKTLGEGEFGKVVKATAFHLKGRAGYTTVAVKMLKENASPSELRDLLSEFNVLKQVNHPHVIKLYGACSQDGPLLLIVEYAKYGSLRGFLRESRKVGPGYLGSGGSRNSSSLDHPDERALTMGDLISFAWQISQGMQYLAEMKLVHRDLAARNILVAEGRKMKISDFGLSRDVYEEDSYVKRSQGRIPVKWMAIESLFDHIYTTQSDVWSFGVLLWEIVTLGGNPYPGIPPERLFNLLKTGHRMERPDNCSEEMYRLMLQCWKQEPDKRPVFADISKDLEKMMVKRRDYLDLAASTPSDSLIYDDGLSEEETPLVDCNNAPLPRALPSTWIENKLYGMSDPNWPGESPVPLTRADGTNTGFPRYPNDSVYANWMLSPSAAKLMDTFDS
UniProt P07949, whole entry M918T, looked up: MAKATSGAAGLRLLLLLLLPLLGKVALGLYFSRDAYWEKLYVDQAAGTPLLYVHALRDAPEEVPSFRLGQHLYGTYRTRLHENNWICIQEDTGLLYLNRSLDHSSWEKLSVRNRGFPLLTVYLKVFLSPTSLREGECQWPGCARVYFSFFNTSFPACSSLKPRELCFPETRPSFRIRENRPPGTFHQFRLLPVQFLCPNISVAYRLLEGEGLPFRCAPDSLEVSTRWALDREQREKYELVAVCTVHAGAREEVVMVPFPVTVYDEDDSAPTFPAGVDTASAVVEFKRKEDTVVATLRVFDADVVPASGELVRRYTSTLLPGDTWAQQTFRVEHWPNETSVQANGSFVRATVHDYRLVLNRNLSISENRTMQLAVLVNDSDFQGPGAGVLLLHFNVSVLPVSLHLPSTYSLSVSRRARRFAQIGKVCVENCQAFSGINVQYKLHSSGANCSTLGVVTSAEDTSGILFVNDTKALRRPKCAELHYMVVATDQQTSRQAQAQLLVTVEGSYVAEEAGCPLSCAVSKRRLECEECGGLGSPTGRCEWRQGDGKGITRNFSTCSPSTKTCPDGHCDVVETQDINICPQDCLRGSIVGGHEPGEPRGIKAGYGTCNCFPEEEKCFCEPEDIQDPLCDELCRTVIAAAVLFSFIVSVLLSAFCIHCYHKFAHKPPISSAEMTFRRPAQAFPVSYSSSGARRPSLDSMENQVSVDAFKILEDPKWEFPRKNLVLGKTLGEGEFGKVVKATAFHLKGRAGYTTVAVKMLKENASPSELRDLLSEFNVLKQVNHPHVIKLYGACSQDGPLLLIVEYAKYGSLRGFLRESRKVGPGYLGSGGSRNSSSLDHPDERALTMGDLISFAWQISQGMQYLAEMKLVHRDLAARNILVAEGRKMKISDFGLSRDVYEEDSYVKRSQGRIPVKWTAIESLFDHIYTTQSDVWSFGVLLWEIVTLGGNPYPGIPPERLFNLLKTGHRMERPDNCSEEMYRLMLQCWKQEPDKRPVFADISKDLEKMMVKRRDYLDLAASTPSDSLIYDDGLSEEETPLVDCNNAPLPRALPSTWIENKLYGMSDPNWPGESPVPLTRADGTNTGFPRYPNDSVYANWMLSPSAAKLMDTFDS
UniProt Q9BRS2: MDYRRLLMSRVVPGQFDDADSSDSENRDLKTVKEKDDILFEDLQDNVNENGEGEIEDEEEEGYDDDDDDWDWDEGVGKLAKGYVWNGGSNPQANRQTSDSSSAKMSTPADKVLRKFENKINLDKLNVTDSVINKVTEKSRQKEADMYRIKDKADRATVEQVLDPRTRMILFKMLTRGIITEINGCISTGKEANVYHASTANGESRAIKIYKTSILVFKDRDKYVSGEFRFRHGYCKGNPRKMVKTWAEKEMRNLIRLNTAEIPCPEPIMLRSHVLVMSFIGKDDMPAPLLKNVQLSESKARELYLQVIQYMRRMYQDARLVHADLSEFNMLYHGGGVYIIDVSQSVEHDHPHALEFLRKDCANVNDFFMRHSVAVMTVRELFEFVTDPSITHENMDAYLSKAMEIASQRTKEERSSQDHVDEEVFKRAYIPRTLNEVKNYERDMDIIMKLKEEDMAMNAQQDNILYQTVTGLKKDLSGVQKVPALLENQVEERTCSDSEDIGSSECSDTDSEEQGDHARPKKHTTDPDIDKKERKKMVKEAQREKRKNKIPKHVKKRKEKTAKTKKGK
UniProt Q01974, whole entry: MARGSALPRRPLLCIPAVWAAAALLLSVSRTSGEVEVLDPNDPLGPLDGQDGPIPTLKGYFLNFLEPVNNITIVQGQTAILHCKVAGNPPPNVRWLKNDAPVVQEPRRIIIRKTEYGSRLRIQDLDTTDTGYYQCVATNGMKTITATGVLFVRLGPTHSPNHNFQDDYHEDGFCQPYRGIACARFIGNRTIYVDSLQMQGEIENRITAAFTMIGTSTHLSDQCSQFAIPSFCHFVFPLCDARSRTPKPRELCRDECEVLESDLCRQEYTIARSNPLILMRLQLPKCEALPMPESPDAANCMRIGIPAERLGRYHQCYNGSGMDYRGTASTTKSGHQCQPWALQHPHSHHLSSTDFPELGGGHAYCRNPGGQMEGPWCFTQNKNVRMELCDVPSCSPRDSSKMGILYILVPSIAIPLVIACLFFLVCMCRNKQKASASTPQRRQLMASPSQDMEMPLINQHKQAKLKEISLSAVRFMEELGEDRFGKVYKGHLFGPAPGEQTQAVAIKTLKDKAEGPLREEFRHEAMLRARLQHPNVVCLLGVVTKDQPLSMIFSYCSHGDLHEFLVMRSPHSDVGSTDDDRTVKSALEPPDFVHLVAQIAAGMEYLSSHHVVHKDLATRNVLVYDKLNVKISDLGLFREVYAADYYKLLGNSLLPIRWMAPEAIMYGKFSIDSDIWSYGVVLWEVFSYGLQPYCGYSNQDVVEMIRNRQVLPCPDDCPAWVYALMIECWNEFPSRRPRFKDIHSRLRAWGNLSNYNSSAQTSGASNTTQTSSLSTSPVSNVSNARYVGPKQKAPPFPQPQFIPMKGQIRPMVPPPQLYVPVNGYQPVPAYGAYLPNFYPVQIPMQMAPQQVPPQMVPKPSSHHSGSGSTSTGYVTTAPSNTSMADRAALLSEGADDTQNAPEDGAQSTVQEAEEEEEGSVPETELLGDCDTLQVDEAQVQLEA
UniProt Q9NYA1, whole entry: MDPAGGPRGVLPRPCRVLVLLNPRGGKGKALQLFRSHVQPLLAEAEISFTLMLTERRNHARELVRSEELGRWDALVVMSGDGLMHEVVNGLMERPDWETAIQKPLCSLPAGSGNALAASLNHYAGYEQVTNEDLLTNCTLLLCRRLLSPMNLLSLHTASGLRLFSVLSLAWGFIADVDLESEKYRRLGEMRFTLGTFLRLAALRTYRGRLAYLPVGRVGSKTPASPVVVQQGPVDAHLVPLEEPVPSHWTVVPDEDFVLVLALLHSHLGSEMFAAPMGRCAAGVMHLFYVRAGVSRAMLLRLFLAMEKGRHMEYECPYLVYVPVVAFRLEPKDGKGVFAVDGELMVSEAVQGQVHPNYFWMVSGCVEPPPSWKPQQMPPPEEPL
UniProt Q9Y6E0: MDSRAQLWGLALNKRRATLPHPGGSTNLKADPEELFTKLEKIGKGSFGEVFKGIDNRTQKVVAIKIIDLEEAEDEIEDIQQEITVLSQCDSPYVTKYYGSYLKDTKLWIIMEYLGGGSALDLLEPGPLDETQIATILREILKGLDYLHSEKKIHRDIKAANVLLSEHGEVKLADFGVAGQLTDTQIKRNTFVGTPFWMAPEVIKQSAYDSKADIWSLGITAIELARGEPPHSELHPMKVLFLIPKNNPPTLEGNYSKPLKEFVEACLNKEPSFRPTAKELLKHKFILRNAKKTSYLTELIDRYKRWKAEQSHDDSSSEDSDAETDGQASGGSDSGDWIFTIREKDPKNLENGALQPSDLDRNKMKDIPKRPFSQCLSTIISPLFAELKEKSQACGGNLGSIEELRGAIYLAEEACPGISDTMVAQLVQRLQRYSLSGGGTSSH
UniProt Q15208: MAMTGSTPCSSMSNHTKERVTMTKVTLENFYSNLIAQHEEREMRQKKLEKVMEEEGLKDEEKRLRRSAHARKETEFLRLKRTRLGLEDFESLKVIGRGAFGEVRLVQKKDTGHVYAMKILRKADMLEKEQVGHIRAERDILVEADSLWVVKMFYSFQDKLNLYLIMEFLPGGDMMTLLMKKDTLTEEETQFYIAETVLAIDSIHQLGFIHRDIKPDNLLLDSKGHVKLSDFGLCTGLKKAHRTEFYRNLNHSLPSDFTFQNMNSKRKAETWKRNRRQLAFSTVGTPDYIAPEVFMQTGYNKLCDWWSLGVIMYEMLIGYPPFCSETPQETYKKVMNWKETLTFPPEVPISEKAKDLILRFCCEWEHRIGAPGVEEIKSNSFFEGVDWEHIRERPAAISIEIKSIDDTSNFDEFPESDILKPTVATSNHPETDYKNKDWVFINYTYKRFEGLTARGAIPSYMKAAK
UniProt Q6PHR2: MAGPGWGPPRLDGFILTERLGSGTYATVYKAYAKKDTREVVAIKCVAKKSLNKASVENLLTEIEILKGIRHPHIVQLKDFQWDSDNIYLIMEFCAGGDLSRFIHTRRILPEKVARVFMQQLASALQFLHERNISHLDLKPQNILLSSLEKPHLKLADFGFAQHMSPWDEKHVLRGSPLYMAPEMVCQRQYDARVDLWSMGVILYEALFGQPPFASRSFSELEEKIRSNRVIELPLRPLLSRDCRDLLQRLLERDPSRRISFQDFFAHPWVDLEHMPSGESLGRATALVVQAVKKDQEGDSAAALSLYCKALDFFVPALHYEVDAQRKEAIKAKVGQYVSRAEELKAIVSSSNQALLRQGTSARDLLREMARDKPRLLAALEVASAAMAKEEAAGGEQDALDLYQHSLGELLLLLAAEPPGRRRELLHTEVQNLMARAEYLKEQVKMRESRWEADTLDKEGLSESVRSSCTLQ

Measured: number of time points

CC1CN(C(=O)Nc2ccc(Cl)c(Cl)c2)C(=Nc2ccc(F)cc2)S1 (stereo not given) (10 µM)
0: all assays above

COc1ccc([C@H]2c3[nH]c4ccc(Cl)cc4c3CCN2C(=O)Oc2ccc(Cl)cc2)cc1 (2.5 µM)
0: all assays above

COc1ccc(-c2ccc3c(N4CCOC[C@@H]4C)nc(N4CCOC[C@@H]4C)nc3n2)cc1CO (2.5 µM)
4: PTK2B | RET | [2] | RIPK1 | TYK2
3: PTK2 | RAF1 | [1] | RIPK2 | STK38 | ULK3
1: SYK
0: all other assays above

O=C1NC(=O)/C(=C/c2ccc3c(c2)OC(F)(F)O3)S1 (10 µM)
0: all assays above

CS(=O)(=O)c1ccc(-c2cnc(N)c(C(=O)Nc3ccccc3)n2)cc1 (10 µM)
0: all assays above

O=C(O)CCc1ccc(O)c(O)c1 [Dihydrocaffeic acid] (10 µM)
0: all assays above

CCN(CC)c1ccc2cc(C(=O)N3CCN(C(=O)C4=Cc5c(Br)cccc5S4(=O)=O)CC3)c(=O)oc2c1 (2 µM)
1: TYK2
0: all other assays above

CCN(CC)S(=O)(=O)c1ccc(OC)c(N2CCN(C(=O)c3ccc(F)cc3C(F)(F)F)CC2)c1 (10 µM)
0: all assays above

Cc1cc(-c2cc(OC(=O)c3ccccc3)ccc2Cl)cc2nnc(Nc3ccc(OCCN4CCCC4)cc3)nc12 (0.5 µM)
2: [1]
4: RIPK2
0: all other assays above

Cc1ccc(NC(=S)NNc2c([N+](=O)[O-])cc(C(F)(F)F)cc2[N+](=O)[O-])cc1Cl (10 µM)
1: PTK2
0: all other assays above

Cc1c(CN2CCN(C(=O)[C@H](C)O)CC2)sc2c(N3CCOCC3)nc(-c3cnc(N)nc3)nc12 [Apitolisib] (10 µM)
3: PTK2
1: ULK3
4: TYK2
2: RAF1
0: all other assays above

CCc1cc(O)c(F)cc1-c1ccc2c(-c3nc4c([nH]3)CN(C3CCN(C)CC3)CC4)n[nH]c2c1 [JAK-IN-5 (hydrochloride)] (2 µM)
4: [1]
3: RIPK1 | RIPK2 | TYK2
1: RAF1 | ULK3
2: PTK2
0: all other assays above

CC(C)=CC(=O)CCC(=O)N1CCN(Cc2cc3nc(-c4cccc5[nH]ncc45)nc(N4CCOCC4)c3s2)CC1 (10 µM)
1: PTK2
5: SPHK1
0: all other assays above

O=C(CNC(=O)c1ccc(-c2ccccc2)cc1)NC1CCCc2ccccc21 (stereo not given) [TAO Kinase inhibitor 1] (10 µM)
0: all assays above

C[C@@H]1O[C@@H](O[C@H]2[C@H](Oc3cc(O)c4c(=O)cc(-c5ccc(O)cc5)oc4c3)O[C@H](CO)[C@@H](O)[C@@H]2O)[C@H](O)[C@H](O)[C@H]1O [Rhoifolin] (10 µM)
0: all assays above

Cc1cc(O)c(C(C)C)cc1N=O [Poloxime] (10 µM)
1: RIOK1
2: [1] | RIPK1
0: all other assays above

CN(CCNc1ccc2ncc(-c3ccc(C(N)=O)cc3)n2n1)C(=O)OC(C)(C)C (10 µM)
1: TYK2
0: all other assays above

COc1cc2ncnc(Nc3cccc(Cl)c3)c2cc1OC (10 µM)
0: all assays above

Cc1noc(C)c1-c1ccc(-c2cc(C(N)=O)c(NC(N)=O)s2)c(O[C@H]2CCNC2)c1 (10 µM)
0: all assays above

COc1cc2c[n+](C)c3c4cc5c(cc4ccc3c2cc1OC)OCO5 [Nitidine (chloride)] (2 µM)
0: all assays above

Quoted from the listing (2 entries):
CC(C)=CC(=O)CCC(=O)N1CCN(Cc2cc3nc(-c4cccc5[nH]ncc45)nc(N4CCOCC4)c3s2)CC1 (10 µM)
1: PTK2
5: SPHK1
0: all other assays above

O=C(CNC(=O)c1ccc(-c2ccccc2)cc1)NC1CCCc2ccccc21 (stereo not given) [TAO Kinase inhibitor 1] (10 µM)
0: all assays above

Next part:

NCCN1CCN(C/C=C/C(=O)N2CCC[C@@H](n3nc(-c4ccc(Oc5ccccc5)cc4)c4c(N)ncnc43)C2)CC1 [Ibrutinib-MPEA] (10 µM)
0: all assays above

COc1ccc2[nH]cc(/C=C3\C(=O)Nc4ccc(NC(=O)CCN5CCCCC5)cc43)c2c1 (2.5 µM)
0: all assays above

CC/C=C\C/C=C\C/C=C\CCCCCCCC(=O)O [α-Linolenic acid] (10 µM)
0: all assays above

COc1ccc([C@@H]2CC(=O)c3c(O)cc(O)cc3O2)cc1O [Hesperetin] (10 µM)
0: all assays above

Cc1cc2cc(Nc3ccnc(Nc4ccc5[nH]c(C)cc5c4)n3)ccc2[nH]1 (2.5 µM)
0: all assays above

Reference: the supplement of paper PMC12823440, “Inhibitors supercharge kinase turnover through native proteolytic circuits” (Nature, 2025)
